In publication PMC9197937:
Results are given in words; binding and its absence hold for the method and conditions named. Binding calls can cover weak binding; strength is not graded here.

Amino acid sequences for entries named in this document (tags omitted). A change or cut given only in a name is not applied to a line headed by its entry.
UniProt P0C2H8: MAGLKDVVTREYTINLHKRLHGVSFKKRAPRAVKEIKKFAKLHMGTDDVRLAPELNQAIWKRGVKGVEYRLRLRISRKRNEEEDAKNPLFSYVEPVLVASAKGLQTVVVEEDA

Biological target: eL31 (S. cerevisiae (endogenous in BY4741 background)) (UniProt P0C2H8)
Test: cryo-EM structure; RNC-RAC-Ssb1 sample: purified RNC-RAC supplemented with RAC and Ssb1 with ATP (RNC:RAC:Ssb1:ATP roughly 1:5:5:100); states B1-B3, State B2 at 2.9 Å, ZHD and JD region 4 Å; both purified

- binding: binds
B1: Zuo1 of recombinant RAC (protein, UniProt P32527 1-433)
chain: MFSLPTLTSDITVEVNSSATKTPFVRRPVEPVGKFFLQHAQRTLRNHTWSEFERIEAEKNVKTVDESNVDPDELLFDTELADEDLLTHDARDWKTADLYAAMGLSKLRFRATESQIIKAHRKQVVKYHPDKQSAAGGSLDQDGFFKIIQKAFETLTDSNKRAQYDSCDFVADVPPPKKGTDYDFYEAWGPVFEAEARFSKKTPIPSLGNKDSSKKEVEQFYAFWHRFDSWRTFEFLDEDVPDDSSNRDHKRYIERKNKAARDKKKTADNARLVKLVERAVSEDPRIKMFKEEEKKEKERRKWEREAGARAEAEAKAKAEAEAKAKAESEAKANASAKADKKKAKEAAKAAKKKNKRAIRNSAKEADYFGDADKATTIDEQVGLIVDSLNDEELVSTADKIKANAAGAKEVLKESAKTIVDSGKLPSSLLSYFV
